Not every detail of the peptide structures is certain; ends, links or a residue may be inferred.
Tested on: P. aeruginosa PAO1
Experiment: Time kill assay
Assay type: cell-based

Question: How did the “regrowth of P. aeruginosa after 24 h” value (16 times the MIC value) turn out when `CC[C@H](C)[C@@H]1NC(=O)[C@@H]2CSSC[C@@H]3NC(=O)[C@H](C(C)C)NC(=O)CNC(=O)CNC(=O)[C@H](CCCNC(=N)N)NC(=O)[C@H](CCCNC(=N)N)NC(=O)CNC(=O)[C@H](C(C)C)NC(=O)[C@@H]4CSSC[C@H](NC(=O)[C@H](CC(C)C)NC(=O)[C@H](CCCNC(=N)N)NC(=O)CNC(=O)CNC(=O)[C@H](CO)NC(=O)CNC(=O)[C@H](CO)NC(=O)CNC(=O)[C@@H]5CSSC[C@H](NC(=O)[C@H](CC(=O)O)NC(=O)[C@H](CO)NC(=O)[C@H](CC(=O)O)NC(=O)[C@H](CCCNC(=N)N)NC(=O)[C@H](CCCNC(=N)N)NC(=O)[C@H](CSSC[C@H](NC1=O)C(=O)N[C@@H](CCCNC(=N)N)C(=O)NCC(=O)N[C@@H](CC(N)=O)C(=O)NCC(=O)N[C@@H](Cc1ccc(O)cc1)C(=O)N5)NC(=O)[C@H](CCCNC(=N)N)NC(=O)[C@H](CCC(N)=O)NC(=O)[C@H](CC(C)C)NC(=O)[C@H]([C@@H](C)CC)NC(=O)[C@H](CCCCN)NC(=O)[C@@H]1CCCN1C3=O)C(=O)N1CCC[C@H]1C(=O)NCC(=O)N[C@@H](C)C(=O)N2)C(=O)N[C@@H](Cc1ccc(O)cc1)C(=O)N[C@H]1CSSC[C@H](NC(=O)[C@H](Cc2ccccc2)NC(=O)[C@H](CCCNC(=N)N)NC(=O)[C@H](CCCNC(=N)N)NC(=O)[C@H](CCCNC(=N)N)NC1=O)C(=O)N[C@@H](C(C)C)C(=O)N4` [MCo-PG2] was run?
Answer: Its value is “no regrowth”.

Question: And the “bactericidal activity (time-kill)” value (at concentrations of 4 times the MIC value)?
Answer: The value was “greater than 3 log10 CFU/mL”.

Source: US20240092846A1, “ENGINEERED CYCLOTIDES WITH POTENT BROAD ANTIMICROBIAL ACTIVITY” (priority 2022, published 2024)
